Test results taken from publication PMC6453868.
Results are given in words; binding and its absence hold for the method and conditions named. In cells and extracts the contact can be indirect. Binding calls can cover weak binding; strength is not graded here. Sequences can lack the tags named with a protein. Blank lines part the entries; values can stand above or below the molecule they belong to.

What was measured:
[1] = molecular target: T1, SLC35A4 (putative nucleotide sugar transporter), mVenus- or mCherry-tagged FRET construct (UniProt Q96G79); assay: FRET or BRET; A4-mVenus with mCherry-tagged transporters co-transfected in COS-7 cells, fixed, Operetta; negative control MGAT2-mVenus and mCherry-AE2
T1 sequence: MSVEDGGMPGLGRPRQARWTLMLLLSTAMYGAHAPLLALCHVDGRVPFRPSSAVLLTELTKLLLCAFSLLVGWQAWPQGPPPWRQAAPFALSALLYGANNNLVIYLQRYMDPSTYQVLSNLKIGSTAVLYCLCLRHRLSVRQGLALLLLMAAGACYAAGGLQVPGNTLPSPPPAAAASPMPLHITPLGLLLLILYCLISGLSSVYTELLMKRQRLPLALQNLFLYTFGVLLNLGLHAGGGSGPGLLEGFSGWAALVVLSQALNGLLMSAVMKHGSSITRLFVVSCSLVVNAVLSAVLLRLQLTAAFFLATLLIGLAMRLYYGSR

[2] = molecular target: SLC35A4/SLC35A2 transporter pair (BiFC complex) of the BiFC-based FRET assay; assay: split reporter + FRET or BRET; BiFC-based FRET: COS-7 cells triple-transfected with VN, VC and mCherry- or mCerulean-tagged constructs, fixed, Operetta; negative controls with one non-interacting construct (B4GALT1, AE2)

B1: MGAT1, mCherry- or mCerulean-tagged construct of the BiFC-based FRET assay (tag on the cytosolic surface) (enzyme, UniProt P26572 1-445)
chain: MLKKQSAGLVLWGAILFVAWNALLLLFFWTRPAPGRPPSVSALDGDPASLTREVIRLAQDAEVELERQRGLLQQIGDALSSQRGRVPTAAPPAQPRVPVTPAPAVIPILVIACDRSTVRRCLDKLLHYRPSAELFPIIVSQDCGHEETAQAIASYGSAVTHIRQPDLSSIAVPPDHRKFQGYYKIARHYRWALGQVFRQFRFPAAVVVEDDLEVAPDFFEYFRATYPLLKADPSLWCVSAWNDNGKEQMVDASRPELLYRTDFFPGLGWLLLAELWAELEPKWPKAFWDDWMRRPEQRQGRACIRPEISRTMTFGRKGVSHGQFFDQHLKFIKLNQQFVHFTQLDLSYLQREAYDRDFLARVYGAPQLQVEKVRTNDRKELGEVRVQYTGRDSFKAFAKALGVMDDLKSGVPRAGYRGIVTFQFRGRRVHLAPPLTWEGYDPSWN
binding [2]: binds

B4: MGAT2, mCherry- or mCerulean-tagged construct of the BiFC-based FRET assay (tag on the cytosolic surface) (enzyme, UniProt Q10469 1-447)
chain: MRFRIYKRKVLILTLVVAACGFVLWSSNGRQRKNEALAPPLLDAEPARGAGGRGGDHPSVAVGIRRVSNVSAASLVPAVPQPEADNLTLRYRSLVYQLNFDQTLRNVDKAGTWAPRELVLVVQVHNRPEYLRLLLDSLRKAQGIDNVLVIFSHDFWSTEINQLIAGVNFCPVLQVFFPFSIQLYPNEFPGSDPRDCPRDLPKNAALKLGCINAEYPDSFGHYREAKFSQTKHHWWWKLHFVWERVKILRDYAGLILFLEEDHYLAPDFYHVFKKMWKLKQQECPECDVLSLGTYSASRSFYGMADKVDVKTWKSTEHNMGLALTRNAYQKLIECTDTFCTYDDYNWDWTLQYLTVSCLPKFWKVLVPQIPRIFHAGDCGMHHKKTCRPSTQSAQIESLLNNNKQYMFPETLTISEKFTVVAISPPRKNGGWGDIRDHELCKSYRRLQ
binding [2]: binds

Further lines, results first:

binding [1]: binds
Molecule: mCherry-tagged SLC35A2 (UDP-Gal transporter, Golgi splice variant)

binding [2]: no binding
B2: MGAT5, mCherry- or mCerulean-tagged construct of the BiFC-based FRET assay (tag on the cytosolic surface) (enzyme, UniProt Q09328 1-741)
chain: MALFTPWKLSSQKLGFFLVTFGFIWGMMLLHFTIQQRTQPESSSMLREQILDLSKRYIKALAEENRNVVDGPYAGVMTAYDLKKTLAVLLDNILQRIGKLESKVDNLVVNGTGTNSTNSTTAVPSLVALEKINVADIINGAQEKCVLPPMDGYPHCEGKIKWMKDMWRSDPCYADYGVDGSTCSFFIYLSEVENWCPHLPWRAKNPYEEADHNSLAEIRTDFNILYSMMKKHEEFRWMRLRIRRMADAWIQAIKSLAEKQNLEKRKRKKVLVHLGLLTKESGFKIAETAFSGGPLGELVQWSDLITSLYLLGHDIRISASLAELKEIMKKVVGNRSGCPTVGDRIVELIYIDIVGLAQFKKTLGPSWVHYQCMLRVLDSFGTEPEFNHANYAQSKGHKTPWGKWNLNPQQFYTMFPHTPDNSFLGFVVEQHLNSSDIHHINEIKRQNQSLVYGKVDSFWKNKKIYLDIIHTYMEVHATVYGSSTKNIPSYVKNHGILSGRDLQFLLRETKLFVGLGFPYEGPAPLEAIANGCAFLNPKFNPPKSSKNTDFFIGKPTLRELTSQHPYAEVFIGRPHVWTVDLNNQEEVEDAVKAILNQKIEPYMPYEFTCEGMLQRINAFIEKQDFCHGQVMWPPLSALQVKLAEPGQSCKQVCQESQLICEPSFFQHLNKDKDMLKYKVTCQSSELAKDILVPSFDPKNKHCVFQGDLLLFSCAGAHPRHQRVCPCRDFIKGQVALCKDCL

binding [2]: no binding
B3: MGAT4B, mCherry- or mCerulean-tagged construct of the BiFC-based FRET assay (tag on the cytosolic surface) (enzyme, UniProt Q9UQ53 1-548)
chain: MRLRNGTFLTLLLFCLCAFLSLSWYAALSGQKGDVVDVYQREFLALRDRLHAAEQESLKRSKELNLVLDEIKRAVSERQALRDGDGNRTWGRLTEDPRLKPWNGSHRHVLHLPTVFHHLPHLLAKESSLQPAVRVGQGRTGVSVVMGIPSVRREVHSYLTDTLHSLISELSPQEKEDSVIVVLIAETDSQYTSAVTENIKALFPTEIHSGLLEVISPSPHFYPDFSRLRESFGDPKERVRWRTKQNLDYCFLMMYAQSKGIYYVQLEDDIVAKPNYLSTMKNFALQQPSEDWMILEFSQLGFIGKMFKSLDLSLIVEFILMFYRDKPIDWLLDHILWVKVCNPEKDAKHCDRQKANLRIRFKPSLFQHVGTHSSLAGKIQKLKDKDFGKQALRKEHVNPPAEVSTSLKTYQHFTLEKAYLREDFFWAFTPAAGDFIRFRFFQPLRLERFFFRSGNIEHPEDKLFNTSVEVLPFDNPQSDKEALQEGRTATLRYPRSPDGYLQIGSFYKGVAEGEVDPAFGPLEALRLSIQTDSPVWVILSEIFLKKAD
